Experimental data reported in patent publication US20240398790A1 (ABBVIE INC., priority 2021, published 2024).

Tested on: adult subjects with active ankylosing spondylitis (AS) who had an inadequate response to biologic disease-modifying anti-rheumatic drug therapy (bDMARD-IR)
Experiment: SELECT AXIS 2 Study 1, safety up to Week 14
Conditions: 15 mg QD, percentage based upon the FAS

Which “Prematurely Discontinued Study Drug by Week 14, %” value does the source give for `CC[C@@H]1CN(C(=O)NCC(F)(F)F)C[C@@H]1c1cnc2cnc3[nH]ccc3n12` [upadacitinib, (3S,4R)-3-ethyl-4-(3H-imidazo[1,2-a]pyrrolo[2,3-e]pyrazin-8-yl)-N-(2,2,2-trifluoroethyl)pyrrolidine-1-carboxamide] here?
Its value is “(2.4) %”.

And the “Prematurely Discontinued Study Drug by Week 14, primary reason Lack of Efficacy, %” value?
Its value is “(0.5) %”.
